According to doi:10.64898/2025.12.16.694471:
These are yes or no findings as the source states them, for the method shown. Binding seen in cells or lysates may run through a third protein. These calls come from enrichment with a bait or labelling near it, and not all partners need be listed. For part of these data: Where a sequence is shown, tags or fusion partners need not be part of it.

Protein sequences, listed by entry. Tags and fused reporters are not part of them. Lines headed by an entry give the natural chain unless they say otherwise; changes in a name come on top.
UniProt Q9Y134: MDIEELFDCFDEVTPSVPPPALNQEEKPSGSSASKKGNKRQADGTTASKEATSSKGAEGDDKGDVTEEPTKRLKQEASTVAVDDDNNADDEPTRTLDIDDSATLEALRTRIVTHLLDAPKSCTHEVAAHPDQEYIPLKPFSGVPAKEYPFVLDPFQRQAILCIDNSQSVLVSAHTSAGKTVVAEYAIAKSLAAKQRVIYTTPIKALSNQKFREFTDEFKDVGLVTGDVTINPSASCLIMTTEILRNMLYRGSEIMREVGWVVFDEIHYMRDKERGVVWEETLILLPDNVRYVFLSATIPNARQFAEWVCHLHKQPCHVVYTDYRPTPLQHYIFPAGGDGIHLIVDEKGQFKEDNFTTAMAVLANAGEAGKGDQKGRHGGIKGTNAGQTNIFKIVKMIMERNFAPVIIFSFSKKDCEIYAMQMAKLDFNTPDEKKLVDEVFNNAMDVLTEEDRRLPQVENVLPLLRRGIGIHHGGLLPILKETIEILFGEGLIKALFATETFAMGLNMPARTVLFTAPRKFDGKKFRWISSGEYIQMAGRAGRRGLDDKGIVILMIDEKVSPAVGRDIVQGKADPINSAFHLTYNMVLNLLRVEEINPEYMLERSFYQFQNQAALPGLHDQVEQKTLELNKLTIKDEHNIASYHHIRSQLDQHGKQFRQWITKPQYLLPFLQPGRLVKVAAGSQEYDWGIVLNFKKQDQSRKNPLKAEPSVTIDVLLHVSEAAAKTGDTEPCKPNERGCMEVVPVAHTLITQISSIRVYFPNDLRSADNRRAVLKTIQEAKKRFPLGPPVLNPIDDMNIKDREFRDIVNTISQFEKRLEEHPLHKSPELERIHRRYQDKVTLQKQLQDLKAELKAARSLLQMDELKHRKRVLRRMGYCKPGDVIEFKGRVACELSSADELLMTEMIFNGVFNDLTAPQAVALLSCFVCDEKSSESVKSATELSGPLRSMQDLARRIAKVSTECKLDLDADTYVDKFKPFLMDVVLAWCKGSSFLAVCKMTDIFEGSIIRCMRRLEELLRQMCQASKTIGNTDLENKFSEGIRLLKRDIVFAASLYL

Columns and labels:
[1] = biological target: 3xFLAG-TurboID-TEsup-1 (Drosophila melanogaster (endogenous in OSCs)) (UniProt Q9VBX4); assay: proximity labelling
[2] = biological target: T1, 3xFLAG-TurboID-TEsup-2 (Drosophila melanogaster (endogenous in OSCs)) (UniProt Q7YZA2); assay: proximity labelling
T1 sequence: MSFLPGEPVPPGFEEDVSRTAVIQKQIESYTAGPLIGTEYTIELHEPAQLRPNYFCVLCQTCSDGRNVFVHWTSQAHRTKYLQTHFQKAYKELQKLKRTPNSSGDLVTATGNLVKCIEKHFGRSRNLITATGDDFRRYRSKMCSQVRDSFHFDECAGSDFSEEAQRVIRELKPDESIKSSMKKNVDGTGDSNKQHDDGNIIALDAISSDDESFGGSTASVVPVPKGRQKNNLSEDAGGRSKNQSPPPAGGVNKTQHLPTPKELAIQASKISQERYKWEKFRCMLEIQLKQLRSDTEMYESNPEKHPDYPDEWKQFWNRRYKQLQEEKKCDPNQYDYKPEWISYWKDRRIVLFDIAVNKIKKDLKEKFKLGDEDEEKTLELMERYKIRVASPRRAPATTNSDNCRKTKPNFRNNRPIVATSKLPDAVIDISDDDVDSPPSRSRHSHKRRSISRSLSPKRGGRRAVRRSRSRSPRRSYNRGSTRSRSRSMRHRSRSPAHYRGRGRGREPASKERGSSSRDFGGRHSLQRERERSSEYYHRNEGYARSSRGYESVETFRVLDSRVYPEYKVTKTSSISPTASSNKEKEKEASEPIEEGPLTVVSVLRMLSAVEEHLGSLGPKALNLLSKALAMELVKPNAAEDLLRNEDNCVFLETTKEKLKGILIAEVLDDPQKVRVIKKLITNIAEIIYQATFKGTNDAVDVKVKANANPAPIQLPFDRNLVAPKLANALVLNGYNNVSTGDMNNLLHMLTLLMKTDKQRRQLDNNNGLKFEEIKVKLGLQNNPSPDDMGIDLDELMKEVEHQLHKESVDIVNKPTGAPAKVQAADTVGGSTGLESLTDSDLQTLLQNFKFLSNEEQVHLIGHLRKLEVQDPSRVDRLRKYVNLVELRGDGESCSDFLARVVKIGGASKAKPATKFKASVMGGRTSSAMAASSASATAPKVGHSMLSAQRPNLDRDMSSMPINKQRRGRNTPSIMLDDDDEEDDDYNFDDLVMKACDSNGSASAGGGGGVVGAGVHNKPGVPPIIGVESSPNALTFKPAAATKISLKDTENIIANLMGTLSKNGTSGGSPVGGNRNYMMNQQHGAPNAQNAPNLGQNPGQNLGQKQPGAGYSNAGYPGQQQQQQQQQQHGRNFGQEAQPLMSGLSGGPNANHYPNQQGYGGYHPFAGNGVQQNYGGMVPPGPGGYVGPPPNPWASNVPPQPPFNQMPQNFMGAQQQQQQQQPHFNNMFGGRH

[3] = biological target: dZcchc7-GFP-V5-3xFLAG (Drosophila melanogaster (endogenous in OSCs)); assay: affinity purification with mass spectrometry
[4] = biological target: Mtr4-dTAG-V5-3xFLAG (Drosophila melanogaster (endogenous in OSCs)) (UniProt Q9Y134); assay: affinity purification with mass spectrometry
[5] = biological target: 3xFLAG-V5-GFP-TEsup-1 (Drosophila melanogaster (endogenous in OSCs)) (UniProt Q9VBX4); assay: affinity purification with mass spectrometry
[6] = biological target: T2, 3xFLAG-V5-GFP-TEsup-2 (Drosophila melanogaster (endogenous in OSCs)) (UniProt Q7YZA2); assay: affinity purification with mass spectrometry
T2 sequence: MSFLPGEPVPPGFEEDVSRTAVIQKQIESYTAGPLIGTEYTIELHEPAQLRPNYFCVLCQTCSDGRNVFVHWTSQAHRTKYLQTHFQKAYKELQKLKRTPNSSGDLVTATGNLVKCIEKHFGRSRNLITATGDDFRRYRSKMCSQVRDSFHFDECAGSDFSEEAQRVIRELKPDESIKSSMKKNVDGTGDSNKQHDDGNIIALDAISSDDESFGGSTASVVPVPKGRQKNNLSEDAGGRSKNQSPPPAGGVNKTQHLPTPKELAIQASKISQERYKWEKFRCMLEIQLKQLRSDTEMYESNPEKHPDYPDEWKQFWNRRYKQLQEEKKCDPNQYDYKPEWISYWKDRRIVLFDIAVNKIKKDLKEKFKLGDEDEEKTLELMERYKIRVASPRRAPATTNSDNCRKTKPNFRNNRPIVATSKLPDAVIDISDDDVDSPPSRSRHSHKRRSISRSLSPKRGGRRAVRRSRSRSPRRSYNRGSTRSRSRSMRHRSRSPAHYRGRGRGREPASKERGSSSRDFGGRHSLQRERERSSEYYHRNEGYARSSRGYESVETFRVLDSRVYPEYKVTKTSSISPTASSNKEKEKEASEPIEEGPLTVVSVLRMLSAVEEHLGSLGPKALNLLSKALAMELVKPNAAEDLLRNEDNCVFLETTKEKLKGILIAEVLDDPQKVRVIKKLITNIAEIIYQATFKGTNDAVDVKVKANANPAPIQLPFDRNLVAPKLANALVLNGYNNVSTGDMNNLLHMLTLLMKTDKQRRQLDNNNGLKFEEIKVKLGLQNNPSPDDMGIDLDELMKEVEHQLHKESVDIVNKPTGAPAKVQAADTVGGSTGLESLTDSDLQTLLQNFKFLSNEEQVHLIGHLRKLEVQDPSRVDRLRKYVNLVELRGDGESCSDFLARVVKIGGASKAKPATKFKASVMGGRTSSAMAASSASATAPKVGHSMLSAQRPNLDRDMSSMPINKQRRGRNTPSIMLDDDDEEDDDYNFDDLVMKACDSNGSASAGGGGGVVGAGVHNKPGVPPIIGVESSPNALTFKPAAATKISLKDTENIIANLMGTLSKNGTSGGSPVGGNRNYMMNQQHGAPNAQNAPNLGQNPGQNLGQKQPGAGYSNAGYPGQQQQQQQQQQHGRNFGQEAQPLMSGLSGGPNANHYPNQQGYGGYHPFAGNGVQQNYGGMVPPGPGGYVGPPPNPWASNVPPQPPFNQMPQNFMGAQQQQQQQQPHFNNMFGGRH

[7] = biological target: T3, dZcchc8-GFP-V5-3xFLAG (Drosophila melanogaster (endogenous in OSCs)) (UniProt Q2PE14); assay: affinity purification with mass spectrometry
T3 sequence: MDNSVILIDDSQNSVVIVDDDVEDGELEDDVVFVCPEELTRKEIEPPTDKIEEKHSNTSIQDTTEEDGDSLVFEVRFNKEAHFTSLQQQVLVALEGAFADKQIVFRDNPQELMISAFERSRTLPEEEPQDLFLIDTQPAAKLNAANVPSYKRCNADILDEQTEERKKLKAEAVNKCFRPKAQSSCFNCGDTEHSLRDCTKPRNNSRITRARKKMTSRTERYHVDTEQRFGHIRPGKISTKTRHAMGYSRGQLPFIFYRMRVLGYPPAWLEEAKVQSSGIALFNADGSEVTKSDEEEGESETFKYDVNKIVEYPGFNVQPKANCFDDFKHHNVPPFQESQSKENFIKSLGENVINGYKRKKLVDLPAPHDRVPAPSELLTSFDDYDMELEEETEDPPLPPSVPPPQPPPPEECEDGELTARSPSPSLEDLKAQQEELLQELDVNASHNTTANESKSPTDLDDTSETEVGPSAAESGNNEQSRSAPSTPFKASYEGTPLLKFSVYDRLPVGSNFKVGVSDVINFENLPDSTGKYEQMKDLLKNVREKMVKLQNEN

[8] = biological target: 3xFLAG-V5-GFP-dZfc3h1 (Drosophila melanogaster (endogenous in OSCs and ovaries)) (UniProt Q9W238); assay: affinity purification with mass spectrometry

Measured: binding

B1: Piwi (protein, UniProt Q9VKM1 1-843)
chain: MADDQGRGRRRPLNEDDSSTSRGSGDGPRVKVFRGSSSGDPRADPRIEASRERRALEEAPRREGGPTERKPWGDQYDYLNTRPAELVSKKGTDGVPVMLQTNFFRLKTKPEWRIVHYHVEFEPSIENPRVRMGVLSNHANLLGSGYLFDGLQLFTTRKFEQEITVLSGKSKLDIEYKISIKFVGFISCAEPRFLQVLNLILRRSMKGLNLELVGRNLFDPRAKIEIREFKMELWPGYETSIRQHEKDILLGTEITHKVMRTETIYDIMRRCSHNPARHQDEVRVNVLDLIVLTDYNNRTYRINDVDFGQTPKSTFSCKGRDISFVEYYLTKYNIRIRDHNQPLLISKNRDKALKTNASELVVLIPELCRVTGLNAEMRSNFQLMRAMSSYTRMNPKQRTDRLRAFNHRLQNTPESVKVLRDWNMELDKNVTEVQGRIIGQQNIVFHNGKVPAGENADWQRHFRDQRMLTTPSDGLDRWAVIAPQRNSHELRTLLDSLYRAASGMGLRIRSPQEFIIYDDRTGTYVRAMDDCVRSDPKLILCLVPNDNAERYSSIKKRGYVDRAVPTQVVTLKTTKNRSLMSIATKIAIQLNCKLGYTPWMIELPLSGLMTIGFDIAKSTRDRKRAYGALIASMDLQQNSTYFSTVTECSAFDVLANTLWPMIAKALRQYQHEHRKLPSRIVFYRDGVSSGSLKQLFEFEVKDIIEKLKTEYARVQLSPPQLAYIVVTRSMNTRFFLNGQNPPPGTIVDDVITLPERYDFYLVSQQVRQGTVSPTSYNVLYSSMGLSPEKMQKLTYKMCHLYYNWSGTTRVPAVCQYAKKLATLVGTNLHSIPQNALEKKFYYL
not listed: [8]
binds: all other assays above

B2: Maelstrom (protein, UniProt Q9VNS0 1-459)
chain: MAPKKHSGFMMFVNEWRNRNAEGRRMTLAQAVSHCGTIWEKMNTQQRGPYNSGGKDANVAQRAKRESSNGHGQVDKAQREATESLMDMKRTIERLVLNAKMSHDLENAKFVFVAFNYFTKALTTDVYVPAEFAACEYSLKEGIRSIYSTMIDPGQIIFGQGSDALLHSSTTHDLPLPPNALGEKNMTKLYRNIVDYLSKCQGKGKTLVVFTPAENITMVKSCFRYLECDDDFRDGGEKIQVFDIQYLLFILKKEVMNVADLNDEKINKFATDAFFKKDFFEFTAGIACQYHEDNDRTKYCTQSMVTRWAYTFTDFMCGDLAITVQPGKHIPAQTKPNYLIISSYASSLDHESSFDSFYSLPGSGVKKESQPEACSLSSSRLSVASSSYKPIDHTSFAANLNEVSEFPSLGMRNSSKHHGIAASAQREWNARNLPTHSRLIRKVSDNDFSVNGADGKLKK
not listed: [8]
binds: all other assays above

B3: dZcchc8 (CG4622) (protein, UniProt Q2PE14 1-553)
chain: MDNSVILIDDSQNSVVIVDDDVEDGELEDDVVFVCPEELTRKEIEPPTDKIEEKHSNTSIQDTTEEDGDSLVFEVRFNKEAHFTSLQQQVLVALEGAFADKQIVFRDNPQELMISAFERSRTLPEEEPQDLFLIDTQPAAKLNAANVPSYKRCNADILDEQTEERKKLKAEAVNKCFRPKAQSSCFNCGDTEHSLRDCTKPRNNSRITRARKKMTSRTERYHVDTEQRFGHIRPGKISTKTRHAMGYSRGQLPFIFYRMRVLGYPPAWLEEAKVQSSGIALFNADGSEVTKSDEEEGESETFKYDVNKIVEYPGFNVQPKANCFDDFKHHNVPPFQESQSKENFIKSLGENVINGYKRKKLVDLPAPHDRVPAPSELLTSFDDYDMELEEETEDPPLPPSVPPPQPPPPEECEDGELTARSPSPSLEDLKAQQEELLQELDVNASHNTTANESKSPTDLDDTSETEVGPSAAESGNNEQSRSAPSTPFKASYEGTPLLKFSVYDRLPVGSNFKVGVSDVINFENLPDSTGKYEQMKDLLKNVREKMVKLQNEN
binds: [1] | [2] | [4] | [5] | [6]

B4: Pabp2 (protein, UniProt Q7KNF2 1-224)
chain: MADEDITLNEDQLLESLEETNGEQETEIATEVEEEGSMQIDPELEAIKARVKEMEEEAEKIKQMQSEVDKQMAGGSTTGLATVPLSLEEKQEIDTRSVYVGNVDYGASAEELEAHFHGCGTINRVTILCNKADGHPKGFAYIEFGSKEFVETALAMNETLFRGRQIKVMSKRTNRPGLSTTNRFARGSFRGRGARVSRACCHSTFRGARRAMGYRGRANYYAPY
binds: [8]

B5: Swm (protein, UniProt Q9VIV2 1-1062)
chain: MILENSDKLKDWLSVVLEPLCDADSSALARYVIALLKKDKSDKDLKRIMIEQLDVFLSEETTRFVERLFDAIASEEYLTVPAAPLITASSASTAELTVDQELALVIDGPQDDIEAVLVADSPPPPPKDNVIKPDSNQVKLEQASQDAREAEALAFISQEAGIAMHVPTDAKPAFDHKTKDSHNQQSASNYQHHHVRSASPPGRSSGVSGSGGGGPGGAGLAAGYADKENQPRDSRRRRASLRSRSRSRSRSNERAFRRSRSRDRRVNEREKTQRQFRNKSPPGSQTDNRHHGRRNFDRRRIGGNADDRPRFGNNKSRRSHSRSMSPERNARRNQNSPDRVQTAQANLIPAPVAPPAPVEHPASHPRQRCRDFDEKGYCVRGETCPWDHGVNPVVFEGINNTSLMMSMREYNPDAPEIWARSGGPPPGAGQGPVPPPTQPGQTTINPFSGNVRPTTLMSGSGPSPMGVPNPADYARNPGAPPQAAMMPFPFNPTAVTTPLQRQLIPIPVVDGAPTGGVAEVGKRRFELEDTVAIADVPTKRKVPINSRLGPRVNPNMQQHNSSLELRKVPRGLNTIAHLNNHFAKFGKIVNIQVSYEGDPEAAIVTFSTHAEANVAYRSTEAVLNNRFIKVFWHNDSSGADVGQMNQMGGGGGGGGRKNASQYHLHNVPAVPTPNADGAKISNANPLTEAGAGNIGTPATEQANTAAPASMRLKLNTTTAGGSAGGAAGAGAPGSGRPLNPAANAASIRKKQEEQQKAVHQLANGLRKRKQELLQSYMKQMKTALELVERMDQQDPQRAPTLQTIKVLQMTIDKLRKEIKADQDQLQAQMQQQQQQQQPPVKKTKEQQKKELLDMELELIAQQQEGNDTTAIQKRLEELQRNLGVGSAANNKSTHYAPASGAPGGGAGRKRPNLPEGPTRVDRRPKAIVVTGFAAEEADFVLGHFKNFGEISKHDVDREIPQLILSYATRLNAEQAVLRGKMYKDKRLQISWAPVVTPAPAPMAAPVEKSAAPGDMSVSLENPKQLIQSVSESESLLGSDTLPELRLEDEEEDEESEDRSWRR
binds: [8]
